Part of at least one peptide drawing is inferred or uncertain, most often the ends. Peptide text beside a SMILES is read from it. * marks the point of attachment. pNA = O=[N+]([O-])c1ccc(N*)cc1
Molecular target: T1, Faktor XIIIa (Homo sapiens, UniProt P00488)
T1 construct: Aktivierung des Zymogens FXIII zu Faktor XIIIa; purchased Aventis Behring Fibrogammin HS
T1 sequence (P00488 39-732 limits assumed): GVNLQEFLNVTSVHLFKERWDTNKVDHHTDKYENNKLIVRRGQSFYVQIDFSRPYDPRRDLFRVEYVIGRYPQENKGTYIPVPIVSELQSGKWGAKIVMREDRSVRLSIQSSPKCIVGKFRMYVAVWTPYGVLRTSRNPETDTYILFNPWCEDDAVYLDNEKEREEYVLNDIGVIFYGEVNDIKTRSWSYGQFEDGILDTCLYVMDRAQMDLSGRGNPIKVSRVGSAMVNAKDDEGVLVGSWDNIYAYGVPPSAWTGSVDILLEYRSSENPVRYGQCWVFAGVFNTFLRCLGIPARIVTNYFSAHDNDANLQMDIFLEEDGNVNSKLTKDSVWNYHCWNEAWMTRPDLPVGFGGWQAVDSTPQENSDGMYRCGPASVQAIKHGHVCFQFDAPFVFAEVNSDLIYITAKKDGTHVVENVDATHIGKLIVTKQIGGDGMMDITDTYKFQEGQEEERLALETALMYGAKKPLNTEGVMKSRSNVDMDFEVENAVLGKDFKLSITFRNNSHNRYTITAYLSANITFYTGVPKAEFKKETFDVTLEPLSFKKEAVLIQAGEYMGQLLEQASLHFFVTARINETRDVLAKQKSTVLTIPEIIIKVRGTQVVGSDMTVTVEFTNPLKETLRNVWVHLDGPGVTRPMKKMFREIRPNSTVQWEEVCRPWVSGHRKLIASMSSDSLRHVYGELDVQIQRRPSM
Assay: Cleavage of pNA substrates by activated factor XIIIa, absorbance at 405 nm (Michaelis-Menten kinetics and pre-test)
Type: biochemical
Settings: see Fig. 2
Method: 250 Einheiten lyophilisiertes Fibrogammin HS (Aventis Behring) wurden in 4 ml Wasser gelöst, als 100 µl Portionen aliquotiert und bei -80 °C gelagert. 100 µl dieser Lösung enthalten 6,25 Einheiten FXIII.
100 µl des aliqotierten Fibrogammins (entspricht 6,25 Einheiten) wurden mit 500 µl TBS-Puffer (50 mM Tris-HCl, pH 7,5 in 0,9% (w/v) NaCl), 360 µl einer 0.9 % NaCl-Lösung, 10 µl einer 1 M CaCl2-Lösung und 20 µl einer Thrombinlösung (Rinderthrombin: 14,2 U in 20 µl) versetzt. Der Ansatz wurde 20 min bei 37 °C inkubiert, danach wurden 10 µl einer Lösung mit rekombinantem Hirudin zugesetzt (r-Hirudin: HBW 023 mit 13442 IU mg^-1, Stammlösung des r-Hirudin = 1 mg/ml). Dieser Aktivierungsansatz besitzt ein Gesamtvolumen von 1 ml, der aktivierte Faktor Xllla wurde bei 37 °C aufbewahrt und für die folgenden kinetischen Messungen verwendet.
Die Messungen wurden bei 405 nm und 37 °C mit einem Microplate Reader der Firma Labsystems (iEMS Reader MF) mit folgendem Messansatz durchgeführt: • 150 µl TBS-Puffer (siehe oben, der Puffer kann gegebenenfalls auch eine Aminkomponente enthalten, beispielsweise H-Gly-Ethylester oder H-Gly-Gly-Ethylester oder ein anderes Amin, falls vorhanden ist die finale Konzentration des Amins im Messansatz 2,5 mM oder höher) • 50 µl Substratlösung • 50 µl Enzymlösung (im Messansatz ca. 1,25 Einheiten/ml) […]

CC[C@H](C)[C@H](NC(=O)[C@H](CCC(=O)Nc1ccc([N+](=O)[O-])cc1)NC(=O)[C@@H](N)Cc1ccc(O)cc1)C(=O)N[C@@H](CCCCN)C(=O)N[C@H](C(=O)N[C@H](C(=O)NCC(N)=O)[C@@H](C)CC)C(C)C [Substrat S14, Tyr-Glu(pNA)-Ile-Lys-Val-Ile-Gly-NH2] (H-YE(pNA)IKVIG-NH2)
Eignung als Substrat: geeignete Substrate

From patent EP2348038A1, “Method for determining the activity of transglutaminase factor XIIIa” (PHILIPPS-UNIVERSITÄT MARBURG, priority 2010, dated 2011)
